Assay results reported in the supplement of paper PMC10727501.
This is one part of the list. Single values are uncertain here, since repeats match poorly.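 Researchers measured free-swimming zebrafish larvae's O-bend response probability to dark flashes (naive: first five; training: remaining flashes of four 60-flash blocks; test: later 60-flash block) and OMR turning toward alternating leftward/rightward LED motion. Six treated larvae were compared to sixty 0.1% DMSO controls, with |SSMD|≥2 marking a hit.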

Columns and labels:
Settings in all cases: 10 µM; pre-incubation: 30-90 min
[1] = tested on: Danio rerio larvae (5 dpf, TLF); experiment: OMR-Perf (SSMD vs DMSO vehicle); higher = higher than vehicle (e.g. higher dark-flash O-bend response probability, or better optomotor performance)
[2] = tested on: Danio rerio larvae (5 dpf, TLF); experiment: Prob-Test (SSMD vs DMSO vehicle); higher = higher than vehicle (e.g. higher dark-flash O-bend response probability, or better optomotor performance)
[3] = tested on: Danio rerio larvae (5 dpf, TLF); experiment: Prob-Naive (SSMD vs DMSO vehicle); higher = higher than vehicle (e.g. higher dark-flash O-bend response probability, or better optomotor performance)
[4] = tested on: Danio rerio larvae (5 dpf, TLF); experiment: Prob-Train (SSMD vs DMSO vehicle); higher = higher than vehicle (e.g. higher dark-flash O-bend response probability, or better optomotor performance)

For `CC(=O)NS(=O)(=O)c1ccc(NC(=O)c2ccccc2C(=O)O)cc1` [Phthalylsulfacetamide], the OMR-Perf [1] was 0.482, the Prob-Test [2] was -0.0998 and the Prob-Naive [3] was -0.557. It also gave a Prob-Train [4] of -0.0961.

`COc1ccc(NS(=O)(=O)c2sc3ccc(Cl)cc3c2C)cc1N1CCNCC1` showed an OMR-Perf [1] of -0.539, a Prob-Test [2] of 0.00832 and a Prob-Naive [3] of -0.069. The Prob-Train [4] was -0.0757.

Compound `O=C(CCCN1CC=C(n2c(=O)[nH]c3ccccc32)CC1)c1ccc(F)cc1` [Droperidol] has an OMR-Perf [1] of -1.03, a Prob-Test [2] of -0.249 and a Prob-Naive [3] of -0.0456. The Prob-Train [4] was -0.0214.

For `CCCc1cc2c(N3CCN(C4=NCC(C)(C)S4)CC3)ncnc2s1` [MI-2 (Menin-MLL Inhibitor)], the OMR-Perf [1] was -0.727, the Prob-Test [2] was -1 and the Prob-Naive [3] was -0.268. For the same compound, the Prob-Train [4] was -0.937.

Work on `O=C(CCc1ccc(O)cc1)c1c(O)cc(O)cc1O` [Phloretin] yielded an OMR-Perf [1] of -0.43, a Prob-Test [2] of -0.389 and a Prob-Naive [3] of -0.206. The Prob-Train [4] was -0.411.

`C[C@H](O[C@H]1OCCN(Cc2n[nH]c(=O)[nH]2)[C@H]1c1ccc(F)cc1)c1cc(C(F)(F)F)cc(C(F)(F)F)c1` [Aprepitant] was tested, and the OMR-Perf [1] was 0.512, the Prob-Test [2] was -0.175 and the Prob-Naive [3] was 0.214. It also gave a Prob-Train [4] of -0.122.

Compound `CC1=NN(c2ccccc2)C(=O)C1` [Edaravone] has an OMR-Perf [1] of -0.141, a Prob-Test [2] of 0.113 and a Prob-Naive [3] of 0.506. The Prob-Train [4] was 0.205.

`C[C@@H]1C(=O)O[C@H]2CC34[C@H]5C[C@@H](C(C)(C)C)C36[C@@H](OC(=O)[C@H]6O)O[C@@]4(C(=O)O5)[C@]21O` (some centres not stated) [Ginkgolide A] was tested, and the OMR-Perf [1] was -0.155, the Prob-Test [2] was -0.2 and the Prob-Naive [3] was 0.0775. For the same compound, the Prob-Train [4] was -0.252.

With `CC1(C)S[C@H]2[C@H](NC(=O)[C@H](N)c3ccccc3)C(=O)N2[C@H]1C(=O)O.O.O.O` [Ampicillin Trihydrate] the OMR-Perf [1] was -0.183, the Prob-Test [2] was 0.314 and the Prob-Naive [3] was -0.115. For the same compound, the Prob-Train [4] was 0.154.

With `COc1cc(/C=C/C(=O)O)ccc1O` [Ferulic Acid] the OMR-Perf [1] was -0.0902, the Prob-Test [2] was 0.16 and the Prob-Naive [3] was -0.695. The Prob-Train [4] was 0.145.

In the case of `NS(=O)(=O)c1ccc(NC(=O)Nc2ccc(F)cc2)cc1`, the OMR-Perf [1] is reported as 0.461, the Prob-Test [2] is reported as 0.0622 and the Prob-Naive [3] is reported as -0.646. It also gave a Prob-Train [4] of 0.0944.

Compound `COc1cc2ncnc(Nc3ccc(F)c(Cl)c3)c2cc1OCCCN1CCOCC1` [Gefitinib (ZD1839)] has an OMR-Perf [1] of -0.111, a Prob-Test [2] of 0.0125 and a Prob-Naive [3] of -0.929. It also gave a Prob-Train [4] of -0.948.

`Cc1cc(C(C)Nc2ccccc2)c2nc(N3CCOCC3)cc(=O)n2c1` (configuration not stated) gave an OMR-Perf [1] of 0.115, a Prob-Test [2] of 0.424 and a Prob-Naive [3] of 0.471. The Prob-Train [4] was 0.667.

Compound `C[C@]12C=CC(=O)N[C@@H]1CC[C@@H]1[C@H]2CC[C@]2(C)[C@H](C(=O)Nc3cc(C(F)(F)F)ccc3C(F)(F)F)CC[C@@H]12` [Dutasteride] has an OMR-Perf [1] of -0.374, a Prob-Test [2] of -0.169 and a Prob-Naive [3] of -0.134. The Prob-Train [4] was -1.27.

`O=C(NC1CCOCC1)c1ccc(-c2cc(-c3c[nH]nc3-c3ccccn3)ccn2)cc1` gave an OMR-Perf [1] of -0.523, a Prob-Test [2] of 0.27 and a Prob-Naive [3] of -0.232. It also gave a Prob-Train [4] of 0.24.

In the case of `CNC(=O)c1ccccc1Nc1nc(Nc2ccc(N3CCOCC3)cc2OC)ncc1Cl`, the OMR-Perf [1] is reported as 1.21, the Prob-Test [2] is reported as -1.83 and the Prob-Naive [3] is reported as -0.412. The Prob-Train [4] was -1.29.

With `CO/N=C(/C(=O)N[C@H]1C(=O)N2C(C(=O)O)=C(CSC(=O)c3ccco3)CS[C@H]12)c1csc(N)n1.Cl` [Ceftiofur HCl] the OMR-Perf [1] was -0.565, the Prob-Test [2] was 0.0837 and the Prob-Naive [3] was -0.383. The Prob-Train [4] was 0.0814.

For `CCOc1nc2cccc(C(=O)O)c2n1Cc1ccc(-c2ccccc2-c2nn[nH]n2)cc1` [Candesartan], the OMR-Perf [1] was 0.0146, the Prob-Test [2] was -0.0788 and the Prob-Naive [3] was 0.506. The Prob-Train [4] was 0.297.

In the case of `CCS(=O)(=O)Nc1ccc2c(c1)/C(=C(/Nc1ccc(CN3CCCCC3)cc1)c1ccccc1)C(=O)N2` [Hesperadin], the OMR-Perf [1] is reported as -0.184, the Prob-Test [2] is reported as 0.225 and the Prob-Naive [3] is reported as 0.313. The Prob-Train [4] was 0.667.

With `CN1CCN(C(=O)c2cc3cc(Cl)ccc3[nH]2)CC1` the OMR-Perf [1] was -0.44, the Prob-Test [2] was 0.107 and the Prob-Naive [3] was 0.651. It also gave a Prob-Train [4] of -0.0958.

`CC(=C(CCOP(=O)(O)O)SC(=O)c1ccccc1)N(C=O)Cc1cnc(C)nc1N` [Benfotiamine] showed an OMR-Perf [1] of 0.334, a Prob-Test [2] of 0.211 and a Prob-Naive [3] of 0.457. The Prob-Train [4] was 0.54.

`CNC(=O)c1ccc(N2C(=S)N(c3ccc(C#N)c(C(F)(F)F)c3)C(=O)C2(C)C)cc1F` [Enzalutamide (MDV3100)] was tested, and the OMR-Perf [1] was 0.143, the Prob-Test [2] was -0.35 and the Prob-Naive [3] was 0.459. The Prob-Train [4] was -0.362.

Compound `COC1=C2C[C@H](C)C[C@@H](OC)[C@H](O)[C@H](C)/C=C(\C)[C@H](OC(N)=O)[C@@H](OC)/C=C/C=C(\C)C(=O)NC(=CC1=O)C2=O` [Geldanamycin] has an OMR-Perf [1] of 0.637, a Prob-Test [2] of 0.209 and a Prob-Naive [3] of 0.306. The Prob-Train [4] was -0.559.
